Some of the results follow. Repeats are few or missing, and single values can be far off.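 Cells were imaged in 1,536-well plates, and nuclei stained with an antibody against cleaved PARP were counted against all DNA-stained nuclei to give the apoptosis fraction. Screening doses were chosen to leave most cells alive, and resting and induced cleaved-PARP levels differ strongly between cell lines.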
Tested on: MZ2-MEL
Experiment: cleaved PARP positive nuclei fraction relative to DMSO control; melanoma cells; higher = more apoptosis
Details: library dose: low library concentration; 72 h

Row | SMILES | cleaved PARP positive nuclei fraction [%]
1 | O=C(CCCCCCC(=O)Nc1ccccc1)NO [vorinostat] + O=C(O)C(=O)Nc1sc2c(c1C(=O)O)CCNC2 [TCS401] (first compound 0.08 µM, partner dose 1.66667 µM) | 112
2 | OCCn1cc(-c2cnc3nnn(Cc4ccc5ncccc5c4)c3n2)cn1 + c1cc(-c2cnn3cc(-c4ccc(OCCN5CCCCC5)cc4)cnc23)ccn1 [Dorsomorphin] (first compound 1 µM, partner dose 0.4 µM) | 118
3 | CC1(C)NC(=O)N(c2ccc([N+](=O)[O-])c(C(F)(F)F)c2)C1=O [nilutamide] + CCCCCCCCCCCC1=C(O)C(=O)C=C(O)C1=O [Embelin] (first compound 1 µM, partner dose 1.2 µM) | 68.6
4 | Cn1nnc2c(C(N)=O)ncn2c1=O [temozolomide] + COc1ccc2c(c1)CCC1C2CCC2(C)C(NCCCCCCN3C(=O)C=CC3=O)CCC12 [U73122] (first compound 2 µM, partner dose 0.4 µM) | 63.7
5 | Cn1nnc2c(C(N)=O)ncn2c1=O [temozolomide] + O=S(=O)(c1ccccc1)N(CC(F)(F)F)c1ccc(C(O)(C(F)(F)F)C(F)(F)F)cc1 [T0901317] (first compound 2 µM, partner dose 1.4 µM) | 44
6 | O=C(CCCCCCC(=O)Nc1ccccc1)NO [vorinostat] + O=c1cc(-c2cccc3c2Sc2ccccc2S3)oc(N2CCOCC2)c1 [KU55933] (first compound 0.08 µM, partner dose 1 µM) | 29.1
7 | C[C@@H]1CCN(C(=O)CC#N)C[C@@H]1N(C)c1ncnc2[nH]ccc12 + CC(C)CCN1c2nc(Nc3cc(F)c(O)c(F)c3)ncc2N(C)C(=O)C1C [BID1870] (first compound 1 µM, partner dose 0.2 µM) | 135
8 | Cn1nnc2c(C(N)=O)ncn2c1=O [temozolomide] + COc1ccc(-c2ccc3c(N4CCOCC4)nc(N4C[C@@H](C)O[C@@H](C)C4)nc3n2)cc1CO [KU0063794] (first compound 2 µM, partner dose 0.02 µM) | 59.8
9 | Nc1cccc2c1CN(C1CCC(=O)NC1=O)C2=O (stereo not drawn) [lenalidomide] + CCN(CC)CCCCNc1ncc2cc(-c3cc(OC)cc(OC)c3)c(NC(=O)NC(C)(C)C)nc2n1 [PD173074] (first compound 1 µM, partner dose 0.1 µM) | 113
10 | Cc1nc(Nc2ncc(C(=O)Nc3c(C)cccc3Cl)s2)cc(N2CCN(CCO)CC2)n1 [dasatanib] + CCCCCCCCCCCC1=C(O)C(=O)C=C(O)C1=O [Embelin] (first compound 0.004 µM, partner dose 1.2 µM) | 212
11 | O=C(Nc1cccc(Cl)c1)Nc1ncc(CCNc2ncnc3ccsc23)s1 + Cn1cc(/C=C2\C(=O)Nc3cccnc32)c2ccccc21 [GW441756] (first compound 0.0008 µM, partner dose 0.4 µM) | 28.7
12 | Nc1cccc2c1CN(C1CCC(=O)NC1=O)C2=O (stereo not drawn) [lenalidomide] + COc1ccc(COc2ccc(Cc3cnc(N)nc3N)cc2OC)cc1 [GW2580] (first compound 1 µM, partner dose 1 µM) | 86.8
13 | Cc1ccc(NC(=O)c2cccc(N(C)C)c2)cc1NC(=O)c1ccc(O)cc1 + O=c1cc(-c2cccc3c2Sc2ccccc2S3)oc(N2CCOCC2)c1 [KU55933] (first compound 2 µM, partner dose 1 µM) | 105
14 | OCCn1cc(-c2cnc3nnn(Cc4ccc5ncccc5c4)c3n2)cn1 + Cc1cc([N+](=O)[O-])ccc1NS(=O)(=O)c1cc(Cl)ccc1Cl [FH535] (first compound 1 µM, partner dose 1 µM) | 72.2
15 | Cn1cncc1[C@@](N)(c1ccc(Cl)cc1)c1ccc2c(c1)c(-c1cccc(Cl)c1)cc(=O)n2C [tipifarnib] + O=c1cc(-c2cccc3c2Sc2ccccc2S3)oc(N2CCOCC2)c1 [KU55933] (first compound 0.01 µM, partner dose 1 µM) | 172
16 | NC(=O)Nc1cc(-c2cccc(F)c2)sc1C(=O)N[C@H]1CCCNC1 + c1cc(-c2cnn3cc(-c4ccc(OCCN5CCCCC5)cc4)cnc23)ccn1 [Dorsomorphin] (first compound 0.02 µM, partner dose 0.4 µM) | 70.1
17 | O=C(Nc1cccc(Cl)c1)Nc1ncc(CCNc2ncnc3ccsc23)s1 + CCc1ccc(CCOc2ccc(CC3SC(=O)NC3=O)cc2)nc1 [pioglitazone] (first compound 0.0008 µM, partner dose 2 µM) | 144
18 | C[C@]1(c2nc3c(C(N)=O)cccc3[nH]2)CCCN1 [Veliparib] + COc1ccc2c(c1)CCC1C2CCC2(C)C(NCCCCCCN3C(=O)C=CC3=O)CCC12 [U73122] (first compound 1.4 µM, partner dose 0.4 µM) | 88.1
19 | C[C@@H]1CCN(C(=O)CC#N)C[C@@H]1N(C)c1ncnc2[nH]ccc12 + COc1ccc2c(c1)CCC1C2CCC2(C)C(NCCCCCCN3C(=O)C=CC3=O)CCC12 [U73122] (first compound 1 µM, partner dose 0.4 µM) | 112
20 | OCCn1cc(-c2cnc3nnn(Cc4ccc5ncccc5c4)c3n2)cn1 + COC(=O)c1sccc1S(=O)(=O)Nc1ccc(Nc2ccccc2)cc1OC [GSK0660] (first compound 1 µM, partner dose 1 µM) | 124
21 | O=C(Nc1cccc(Cl)c1)Nc1ncc(CCNc2ncnc3ccsc23)s1 + Oc1nc(-c2ccc(C(F)(F)F)cc2)nc2c1CSCC2 [XAV939] (first compound 0.0008 µM, partner dose 2 µM) | 88.8
22 | O=C(Nc1cccc(Cl)c1)Nc1ncc(CCNc2ncnc3ccsc23)s1 + COc1cc2ncnc(Nc3ccc(Oc4ccccc4)cc3)c2cc1OC [SrcI1] (first compound 0.0008 µM, partner dose 2 µM) | 131
23 | COc1cc(Nc2ncc(F)c(Nc3ccc4c(n3)NC(=O)C(C)(C)O4)n2)cc(OC)c1OC [Tamatinib] + COc1cc(N2CCC(N3CCN(C)CC3)CC2)ccc1Nc1ncc(Cl)c(Nc2ccccc2S(=O)(=O)C(C)C)n1 [NVP-TAE684] (first compound 0.4 µM, partner dose 0.08 µM) | 152

Exported as comma-separated lines: part of the list above.
Row,SMILES,cleaved PARP positive nuclei fraction [%]
20,"OCCn1cc(-c2cnc3nnn(Cc4ccc5ncccc5c4)c3n2)cn1 + COC(=O)c1sccc1S(=O)(=O)Nc1ccc(Nc2ccccc2)cc1OC [GSK0660] (first compound 1 µM, partner dose 1 µM)",124
21,"O=C(Nc1cccc(Cl)c1)Nc1ncc(CCNc2ncnc3ccsc23)s1 + Oc1nc(-c2ccc(C(F)(F)F)cc2)nc2c1CSCC2 [XAV939] (first compound 0.0008 µM, partner dose 2 µM)",88.8
22,"O=C(Nc1cccc(Cl)c1)Nc1ncc(CCNc2ncnc3ccsc23)s1 + COc1cc2ncnc(Nc3ccc(Oc4ccccc4)cc3)c2cc1OC [SrcI1] (first compound 0.0008 µM, partner dose 2 µM)",131
23,"COc1cc(Nc2ncc(F)c(Nc3ccc4c(n3)NC(=O)C(C)(C)O4)n2)cc(OC)c1OC [Tamatinib] + COc1cc(N2CCC(N3CCN(C)CC3)CC2)ccc1Nc1ncc(Cl)c(Nc2ccccc2S(=O)(=O)C(C)C)n1 [NVP-TAE684] (first compound 0.4 µM, partner dose 0.08 µM)",152

— the supplement of paper PMC4604168 (melanoma cell lines)
